PMC9491610
Positions count from the first letter of the chain named. Results are given in words; binding and its absence hold for the method and conditions named. Binding seen in cells or lysates may run through a third protein. Some entries that bind do so weakly or less than the wild type. For part of these data: Tags and fused reporters may be left off the sequences shown.

Chains of the proteins cited; added tags and fusions are not shown. Lines headed by an entry give the natural chain unless they say otherwise; changes in a name come on top.
UniProt P09733: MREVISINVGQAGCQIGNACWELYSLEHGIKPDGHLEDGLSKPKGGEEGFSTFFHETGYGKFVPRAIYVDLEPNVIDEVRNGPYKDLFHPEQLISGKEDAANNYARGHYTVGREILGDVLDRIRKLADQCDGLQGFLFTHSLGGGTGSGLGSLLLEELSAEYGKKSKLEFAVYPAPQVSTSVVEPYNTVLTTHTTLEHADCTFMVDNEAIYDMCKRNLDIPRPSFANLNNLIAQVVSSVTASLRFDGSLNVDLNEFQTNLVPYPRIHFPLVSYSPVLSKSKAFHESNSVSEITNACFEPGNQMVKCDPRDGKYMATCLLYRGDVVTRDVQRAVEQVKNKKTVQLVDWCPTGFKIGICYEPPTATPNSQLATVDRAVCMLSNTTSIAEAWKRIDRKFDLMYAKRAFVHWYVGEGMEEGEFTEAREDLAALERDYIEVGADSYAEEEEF

Legend:
Assay in all cases: co-IP; Stu2-HA precipitated with anti-HA magnetic beads from 67 mg cryo-milled yeast extract in PEM buffer (80 mM PIPES, 1 mM EGTA, 1 mM MgCl2, pH 6.8); precipitate blotted with anti α-tubulin (anti-Tub1) as surrogate for αβ-tubulin
[1] = target: T1, Stu2-HA (wild-type Stu2, 3xHA tagged) (S. cerevisiae) (UniProt P46675)
T1 sequence: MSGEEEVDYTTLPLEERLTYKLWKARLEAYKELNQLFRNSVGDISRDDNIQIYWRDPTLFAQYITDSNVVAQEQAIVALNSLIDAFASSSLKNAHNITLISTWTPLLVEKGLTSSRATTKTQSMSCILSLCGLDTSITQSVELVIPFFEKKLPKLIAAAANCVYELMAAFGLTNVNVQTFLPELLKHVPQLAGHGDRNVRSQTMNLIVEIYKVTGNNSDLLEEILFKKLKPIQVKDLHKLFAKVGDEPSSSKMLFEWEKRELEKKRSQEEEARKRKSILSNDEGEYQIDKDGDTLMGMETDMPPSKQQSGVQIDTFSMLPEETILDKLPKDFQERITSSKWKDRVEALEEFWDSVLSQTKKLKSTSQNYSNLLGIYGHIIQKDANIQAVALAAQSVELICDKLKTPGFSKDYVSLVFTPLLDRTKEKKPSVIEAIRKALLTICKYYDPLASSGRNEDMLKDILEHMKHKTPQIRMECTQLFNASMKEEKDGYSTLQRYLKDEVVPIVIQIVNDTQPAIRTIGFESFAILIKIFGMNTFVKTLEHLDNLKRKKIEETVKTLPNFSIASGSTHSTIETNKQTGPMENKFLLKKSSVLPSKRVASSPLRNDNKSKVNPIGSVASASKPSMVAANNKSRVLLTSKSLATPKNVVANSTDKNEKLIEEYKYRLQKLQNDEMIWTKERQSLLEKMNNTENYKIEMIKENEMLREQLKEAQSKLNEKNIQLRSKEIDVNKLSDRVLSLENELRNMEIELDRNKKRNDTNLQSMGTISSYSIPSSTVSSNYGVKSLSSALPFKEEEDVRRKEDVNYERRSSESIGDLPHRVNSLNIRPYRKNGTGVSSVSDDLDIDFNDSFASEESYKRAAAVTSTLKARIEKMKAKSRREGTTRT

[2] = target: T2, Stu2-K252Q-3xHA (S. cerevisiae) (UniProt P46675)
T2 sequence: T1 sequence with K252Q

[3] = target: T3, Stu2-K469Q-3xHA (S. cerevisiae) (UniProt P46675)
T3 sequence: T1 sequence with K469Q

Measured: binding

αβ-tubulin heterodimer (from UniProt P09733 1-447; P02557 1-457) (complex)
binds: [1] | [2] | [3]
